Test results published in the supplement of paper PMC10849652.
This is one part of the list.

Sequences of proteins named here, by UniProt entry; tags and fusion partners are left off. A change or cut given only in a name is not applied to a line headed by its entry.
UniProt P53701: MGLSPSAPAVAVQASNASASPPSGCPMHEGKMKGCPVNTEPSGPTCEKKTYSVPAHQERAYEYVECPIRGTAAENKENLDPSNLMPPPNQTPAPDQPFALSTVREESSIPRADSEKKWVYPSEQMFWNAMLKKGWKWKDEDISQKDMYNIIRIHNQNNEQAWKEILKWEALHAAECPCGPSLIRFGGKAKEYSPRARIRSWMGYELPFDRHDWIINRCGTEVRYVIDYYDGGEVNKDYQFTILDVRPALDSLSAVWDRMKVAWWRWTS
UniProt Q9BX10: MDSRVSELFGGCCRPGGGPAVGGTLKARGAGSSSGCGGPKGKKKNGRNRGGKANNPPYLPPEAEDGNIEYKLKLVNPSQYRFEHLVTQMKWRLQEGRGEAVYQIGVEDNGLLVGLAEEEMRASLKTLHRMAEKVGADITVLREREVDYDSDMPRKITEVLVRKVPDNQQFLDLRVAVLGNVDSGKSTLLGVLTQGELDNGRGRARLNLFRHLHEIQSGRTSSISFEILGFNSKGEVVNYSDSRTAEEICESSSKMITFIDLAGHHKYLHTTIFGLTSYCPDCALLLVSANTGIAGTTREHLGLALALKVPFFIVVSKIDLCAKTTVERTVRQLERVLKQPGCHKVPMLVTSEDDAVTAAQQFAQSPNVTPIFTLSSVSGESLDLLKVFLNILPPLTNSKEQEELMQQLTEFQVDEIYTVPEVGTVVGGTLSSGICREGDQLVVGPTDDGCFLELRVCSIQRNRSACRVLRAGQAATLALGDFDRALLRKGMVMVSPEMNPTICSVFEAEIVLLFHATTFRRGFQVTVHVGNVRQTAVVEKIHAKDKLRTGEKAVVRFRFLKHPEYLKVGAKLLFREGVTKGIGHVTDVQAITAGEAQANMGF
UniProt P02724: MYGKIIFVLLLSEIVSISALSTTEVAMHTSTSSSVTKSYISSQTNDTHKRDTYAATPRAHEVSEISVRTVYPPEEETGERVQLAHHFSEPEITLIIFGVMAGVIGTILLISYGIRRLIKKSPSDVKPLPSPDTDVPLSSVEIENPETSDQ
UniProt P69891: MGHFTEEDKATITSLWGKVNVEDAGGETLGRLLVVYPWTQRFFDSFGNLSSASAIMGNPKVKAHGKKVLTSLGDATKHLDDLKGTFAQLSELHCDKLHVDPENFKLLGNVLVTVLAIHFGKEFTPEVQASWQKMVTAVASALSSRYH
UniProt O15379: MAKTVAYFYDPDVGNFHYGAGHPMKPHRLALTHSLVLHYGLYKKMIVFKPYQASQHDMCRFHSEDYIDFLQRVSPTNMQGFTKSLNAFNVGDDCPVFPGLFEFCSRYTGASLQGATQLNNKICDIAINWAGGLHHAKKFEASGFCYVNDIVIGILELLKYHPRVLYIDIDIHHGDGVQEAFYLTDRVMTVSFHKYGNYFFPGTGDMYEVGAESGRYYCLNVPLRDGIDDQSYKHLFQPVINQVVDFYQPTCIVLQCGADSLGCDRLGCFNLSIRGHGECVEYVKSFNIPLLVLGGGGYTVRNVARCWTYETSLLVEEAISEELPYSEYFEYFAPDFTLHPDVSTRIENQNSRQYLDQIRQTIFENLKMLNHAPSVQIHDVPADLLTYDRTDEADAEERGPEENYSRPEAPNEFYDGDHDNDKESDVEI
UniProt P35269, whole entry, looked up: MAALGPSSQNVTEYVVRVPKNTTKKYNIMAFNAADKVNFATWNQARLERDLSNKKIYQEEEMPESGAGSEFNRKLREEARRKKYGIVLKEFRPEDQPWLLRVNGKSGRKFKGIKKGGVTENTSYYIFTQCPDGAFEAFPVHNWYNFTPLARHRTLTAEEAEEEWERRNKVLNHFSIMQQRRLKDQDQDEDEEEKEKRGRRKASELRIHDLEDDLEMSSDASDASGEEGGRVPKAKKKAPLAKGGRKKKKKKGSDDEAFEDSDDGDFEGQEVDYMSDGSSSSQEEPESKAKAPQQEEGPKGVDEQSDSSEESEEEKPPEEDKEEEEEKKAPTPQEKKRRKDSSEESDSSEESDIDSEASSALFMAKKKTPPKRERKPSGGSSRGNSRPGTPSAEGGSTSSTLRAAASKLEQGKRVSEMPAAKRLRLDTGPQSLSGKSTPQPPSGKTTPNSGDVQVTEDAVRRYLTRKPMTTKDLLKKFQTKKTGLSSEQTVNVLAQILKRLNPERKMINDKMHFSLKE
UniProt P51858: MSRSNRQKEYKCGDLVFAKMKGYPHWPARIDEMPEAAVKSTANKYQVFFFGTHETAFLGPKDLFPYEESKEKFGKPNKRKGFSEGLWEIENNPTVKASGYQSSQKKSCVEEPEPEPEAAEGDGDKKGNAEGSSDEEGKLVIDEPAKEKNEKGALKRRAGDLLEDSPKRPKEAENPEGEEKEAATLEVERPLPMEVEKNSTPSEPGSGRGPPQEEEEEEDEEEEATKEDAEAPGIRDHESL
UniProt Q9BQS7: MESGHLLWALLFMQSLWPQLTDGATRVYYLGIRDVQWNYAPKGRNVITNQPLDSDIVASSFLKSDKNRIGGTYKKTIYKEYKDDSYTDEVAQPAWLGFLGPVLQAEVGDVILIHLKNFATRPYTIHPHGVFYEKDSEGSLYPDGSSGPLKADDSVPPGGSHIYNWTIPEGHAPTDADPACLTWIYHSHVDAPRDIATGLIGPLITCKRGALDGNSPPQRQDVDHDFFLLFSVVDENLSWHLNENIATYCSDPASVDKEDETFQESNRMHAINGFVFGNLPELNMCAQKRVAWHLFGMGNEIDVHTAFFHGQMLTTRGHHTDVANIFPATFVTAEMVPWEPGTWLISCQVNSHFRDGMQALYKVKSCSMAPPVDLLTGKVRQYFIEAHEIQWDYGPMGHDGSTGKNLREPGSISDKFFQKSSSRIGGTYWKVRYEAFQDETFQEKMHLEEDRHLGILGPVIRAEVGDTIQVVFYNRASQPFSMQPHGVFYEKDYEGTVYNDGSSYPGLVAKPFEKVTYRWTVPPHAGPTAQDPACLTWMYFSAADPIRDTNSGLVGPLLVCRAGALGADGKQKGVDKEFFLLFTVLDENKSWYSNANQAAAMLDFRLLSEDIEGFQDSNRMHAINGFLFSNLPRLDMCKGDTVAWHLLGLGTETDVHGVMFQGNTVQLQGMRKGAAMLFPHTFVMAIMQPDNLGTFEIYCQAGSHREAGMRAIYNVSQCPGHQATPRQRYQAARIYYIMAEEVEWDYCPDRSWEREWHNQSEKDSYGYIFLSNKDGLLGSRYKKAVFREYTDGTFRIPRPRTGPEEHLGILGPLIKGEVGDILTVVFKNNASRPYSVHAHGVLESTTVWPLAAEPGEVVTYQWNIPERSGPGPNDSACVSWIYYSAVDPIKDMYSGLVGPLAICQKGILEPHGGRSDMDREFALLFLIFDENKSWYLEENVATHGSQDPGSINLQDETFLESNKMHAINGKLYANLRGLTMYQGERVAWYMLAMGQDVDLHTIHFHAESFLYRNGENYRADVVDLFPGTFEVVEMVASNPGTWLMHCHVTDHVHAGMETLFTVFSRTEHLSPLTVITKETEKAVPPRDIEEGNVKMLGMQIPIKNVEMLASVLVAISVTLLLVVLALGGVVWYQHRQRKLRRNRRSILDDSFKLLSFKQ
UniProt Q00341: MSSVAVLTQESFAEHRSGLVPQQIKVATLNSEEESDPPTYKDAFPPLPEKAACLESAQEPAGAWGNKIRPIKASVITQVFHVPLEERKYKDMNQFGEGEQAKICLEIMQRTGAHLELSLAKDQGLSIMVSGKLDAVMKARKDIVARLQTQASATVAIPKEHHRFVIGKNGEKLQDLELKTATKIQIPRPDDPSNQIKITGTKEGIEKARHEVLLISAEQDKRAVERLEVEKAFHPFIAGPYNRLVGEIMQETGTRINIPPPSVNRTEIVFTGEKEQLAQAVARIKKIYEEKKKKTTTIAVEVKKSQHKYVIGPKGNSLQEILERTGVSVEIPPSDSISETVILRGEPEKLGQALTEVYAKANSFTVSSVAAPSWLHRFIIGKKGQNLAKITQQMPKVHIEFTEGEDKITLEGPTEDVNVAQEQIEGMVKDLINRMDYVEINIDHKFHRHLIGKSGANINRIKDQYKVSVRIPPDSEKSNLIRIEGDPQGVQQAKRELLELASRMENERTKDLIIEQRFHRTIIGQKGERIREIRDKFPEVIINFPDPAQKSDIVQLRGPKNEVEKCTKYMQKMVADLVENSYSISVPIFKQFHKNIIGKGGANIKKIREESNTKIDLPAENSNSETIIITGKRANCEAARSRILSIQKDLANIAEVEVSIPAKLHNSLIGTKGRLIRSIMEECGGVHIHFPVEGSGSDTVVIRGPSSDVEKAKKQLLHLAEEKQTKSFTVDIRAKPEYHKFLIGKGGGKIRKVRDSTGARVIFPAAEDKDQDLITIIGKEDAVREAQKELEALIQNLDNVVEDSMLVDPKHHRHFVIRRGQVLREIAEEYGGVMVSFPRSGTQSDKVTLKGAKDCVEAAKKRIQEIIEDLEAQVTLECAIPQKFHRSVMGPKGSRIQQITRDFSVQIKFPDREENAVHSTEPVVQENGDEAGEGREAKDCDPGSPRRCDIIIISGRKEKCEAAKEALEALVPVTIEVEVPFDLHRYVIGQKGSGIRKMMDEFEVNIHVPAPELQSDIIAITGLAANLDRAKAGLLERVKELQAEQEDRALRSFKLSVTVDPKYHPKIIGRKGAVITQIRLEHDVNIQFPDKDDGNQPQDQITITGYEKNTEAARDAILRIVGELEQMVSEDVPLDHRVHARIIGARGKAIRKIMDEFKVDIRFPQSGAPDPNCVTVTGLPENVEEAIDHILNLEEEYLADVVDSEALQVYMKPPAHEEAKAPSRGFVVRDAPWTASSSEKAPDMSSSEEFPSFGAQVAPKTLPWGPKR
UniProt P16401, whole entry, looked up: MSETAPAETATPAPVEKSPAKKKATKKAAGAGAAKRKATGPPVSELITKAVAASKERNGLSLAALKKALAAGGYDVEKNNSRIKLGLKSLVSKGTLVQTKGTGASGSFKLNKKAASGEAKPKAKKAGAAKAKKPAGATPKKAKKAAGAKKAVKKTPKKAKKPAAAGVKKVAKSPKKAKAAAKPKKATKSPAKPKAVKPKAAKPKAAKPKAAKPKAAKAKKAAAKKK
UniProt Q96CS2: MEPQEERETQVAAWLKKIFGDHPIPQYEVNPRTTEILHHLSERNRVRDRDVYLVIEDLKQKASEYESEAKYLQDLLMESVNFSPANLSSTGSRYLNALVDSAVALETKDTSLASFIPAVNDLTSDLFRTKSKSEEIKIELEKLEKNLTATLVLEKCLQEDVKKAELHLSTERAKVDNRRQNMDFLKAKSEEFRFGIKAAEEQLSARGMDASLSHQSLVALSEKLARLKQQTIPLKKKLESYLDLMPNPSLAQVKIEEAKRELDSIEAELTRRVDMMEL
UniProt Q8IYD1, whole entry, looked up: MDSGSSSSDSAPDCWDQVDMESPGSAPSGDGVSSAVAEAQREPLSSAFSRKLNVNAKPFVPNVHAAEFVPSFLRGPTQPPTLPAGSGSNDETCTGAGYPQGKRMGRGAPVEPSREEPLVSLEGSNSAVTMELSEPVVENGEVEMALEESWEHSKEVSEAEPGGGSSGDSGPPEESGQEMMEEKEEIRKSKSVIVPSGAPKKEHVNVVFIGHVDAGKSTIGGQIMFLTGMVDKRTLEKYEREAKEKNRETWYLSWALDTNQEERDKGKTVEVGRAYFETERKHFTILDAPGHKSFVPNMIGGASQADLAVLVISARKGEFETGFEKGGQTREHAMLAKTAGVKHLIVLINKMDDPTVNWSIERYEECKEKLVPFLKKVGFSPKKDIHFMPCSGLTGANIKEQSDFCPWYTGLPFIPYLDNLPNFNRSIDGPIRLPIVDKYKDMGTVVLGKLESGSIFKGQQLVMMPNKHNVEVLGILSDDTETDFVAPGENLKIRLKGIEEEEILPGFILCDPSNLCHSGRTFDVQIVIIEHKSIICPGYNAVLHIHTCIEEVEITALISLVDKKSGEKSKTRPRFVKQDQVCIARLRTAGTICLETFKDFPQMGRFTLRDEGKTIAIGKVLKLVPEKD

Experiments:
Assay in all cases: log2 fold change, soluble protein after heating vs DMSO (PISA); higher = thermal stabilisation; K562 cells, 10 uM, 30 min; active = over 0.2 and 3.5 SD of the protein, either way, in both replicates (recomputed)
[1] = compound: CC1=C(C=C(C=C1)NC(=O)C2=CC(=CC=C2)C(C)(C)C#N)NC3=CC4=C(C=C3)N=CN(C4=O)C
Outline: (§1)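 For each measurement, 10 μM compound was applied for 30 min to K562 cells at 2×10^6 cells/mL. Aliquots were heated for 3 min across 48°C-58°C, pooled, and extracted in PBS with 0.5% NP-40 at 4°C; the supernatant after 21,000xg for 90 min was soluble protein. This was quantified by TMTpro 16plex LC-MS/MS with channel sums equalised, and thermal stability was reported relative to control samples from duplicates, on a log2 fold-change scale.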

[2] = compound: CC1=C(C=C(C=C1)NC(=O)C2=CC(=CC=C2)N(C)C)NC(=O)C3=CC=C(C=C3)O
Outline: as §1

[3] = compound: CC1=CC=C(C=C1)SC2=C3C=C(SC3=CN=C2)C(=O)N
Outline: as §1

[4] = compound: CC1=NC(=CC=C1)C2=C(N=C(N2)C(C)(C)C)C3=CC4=NC=CN=C4C=C3
Outline: as §1

Nexturastat A = compound: CCCCN(Cc1ccc(C(=O)NO)cc1)C(=O)Nc1ccccc1 [Nexturastat A]
Outline: as §1

vemurafenib = compound: CCCS(=O)(=O)Nc1ccc(F)c(C(=O)c2c[nH]c3ncc(-c4ccc(Cl)cc4)cc23)c1F [vemurafenib]
Outline: as §1

[5] = compound: CCCS(=O)(=O)Nc1ccc(F)c(C(=O)c2c[nH]c3ncc(Cl)cc23)c1F
Outline: as §1

[6] = compound: CCCc1cc(C)[nH]c(=O)c1CNC(=O)c1cc(-c2ccnc(N3CCN(C)CC3)c2)cc2c1cnn2C(C)C
Outline: as §1

givinostat = compound: CCN(CC)Cc1ccc2cc(COC(=O)Nc3ccc(C(=O)NO)cc3)ccc2c1 [givinostat]
Outline: as §1

barasertib = compound: CCN(CCCOc1ccc2c(Nc3cc(CC(=O)Nc4cccc(F)c4)[nH]n3)ncnc2c1)CCOP(=O)(O)O [barasertib]
Outline: as §1

[7] = compound: CC[C@@H]1C(=O)N(C)c2cnc(Nc3ccc(C(=O)NC4CCN(C)CC4)cc3OC)nc2N1C1CCCC1
Outline: as §1

volasertib = compound: CC[C@@H]1C(=O)N(C)c2cnc(Nc3ccc(C(=O)N[C@H]4CC[C@H](N5CCN(CC6CC6)CC5)CC4)cc3OC)nc2N1C(C)C [volasertib]
Outline: as §1

[8] = compound: CC[C@H](C)N1C=C(C2=C(C=C(C=C21)C3=CN=C(C=C3)N4CCNCC4)C(=O)NCC5=C(C=C(NC5=O)C)C)C
Outline: as §1

epoxomicin = compound: CC[C@H](C)[C@@H](C(=O)N[C@@H]([C@@H](C)O)C(=O)N[C@@H](CC(C)C)C(=O)[C@]1(CO1)C)NC(=O)[C@H]([C@@H](C)CC)N(C)C(=O)C [epoxomicin]
Outline: as §1

[9] = compound: CCn1c(C(=O)N(C2CC2)C2CC2)cc2c3c(ncn3C)c(Nc3cc(C)n(C)n3)nc21
Outline: as §1

[10] = compound: CCn1cc(-c2ccnc3[nH]c(-c4cccc(CN(C)C)c4)cc23)c(-c2ccc(NC(=O)N(C)C)cc2)n1
Outline: as §1

[11] = compound: CN(C)CC(=O)Nc1ccc2[nH]c(=O)c3ccccc3c2c1
Outline: as §1

rosiglitazone = compound: CN(CCOC1=CC=C(C=C1)C[C@H]2C(=O)NC(=O)S2)C3=CC=CC=N3 (racemic) [rosiglitazone]
Outline: as §1

[12] = compound: CN1C2=C(C3=C1C(=O)N(N=C3)CC4=CC(=CC=C4)N)SC(=C2)S(=O)C
Outline: as §1

[13] = compound: CN1CCC(CNc2ccc3ncc(-c4cccc(OC(F)(F)F)c4)n3n2)CC1
Outline: as §1

Measured: log2 fold change

HCCS (UniProt P53701)
inactive: [1] -0.03 | [2] 0.021 | [3] 0.034 | [4] -0.011 | Nexturastat A -0.025 | vemurafenib -0.033 | [5] 0 | [6] -0.059 | givinostat -0.021 | barasertib -0.01 | [7] 0.012 | volasertib -0.007 | [8] -0.037 | epoxomicin -0.014 | [9] 0 | [10] 0.011 | [11] 0.021 | rosiglitazone -0.006 | [12] -0.009 | [13] -0.056

GTPBP2 (UniProt Q9BX10)
inactive: [1] 0.053 | [2] -0.029 | [3] -0.054 | [4] -0.042 | Nexturastat A 0.178 | vemurafenib -0.049 | [5] -0.063 | [6] 0.04 | givinostat 0.067 | barasertib 0.022 | [7] 0.056 | volasertib 0.099 | [8] 0.12 | epoxomicin -0.163 | [9] -0.068 | [10] -0.01 | [11] -0.085 | rosiglitazone -0.02 | [12] 0.061 | [13] -0.058

GYPA (UniProt P02724)
inactive: [1] 0.033 | [2] 0.033 | [3] -0.027 | [4] 0.207 | Nexturastat A -0.122 | vemurafenib 0.029 | [5] -0.03 | [6] 0.381 | givinostat 0 | barasertib -0.023 | [7] 0.046 | volasertib 0.142 | [8] 0.222 | epoxomicin 0.191 | [9] 0.009 | [10] 0.025 | [11] 0.074 | rosiglitazone -0.094 | [12] -0.009 | [13] 0.302

HBG1 (UniProt P69891)
inactive: [1] 0.016 | [2] -0.052 | [3] 0.07 | [4] 0.062 | Nexturastat A -0.026 | vemurafenib 0.056 | [5] 0.006 | [6] -0.028 | givinostat -0.089 | barasertib 0.014 | [7] -0.012 | volasertib -0.057 | [8] -0.013 | epoxomicin 0.188 | [9] 0.066 | [10] -0.036 | [11] -0.013 | rosiglitazone -0.003 | [12] -0.055 | [13] 0.017

HDAC3 isoform 2 (UniProt O15379)
inactive: [1] -0.074 | [2] 0.066 | [3] -0.106 | [4] 0.025 | Nexturastat A -0.104 | vemurafenib 0.028 | [5] -0.01 | [6] -0.038 | givinostat 0.128 | barasertib -0.052 | [7] -0.019 | volasertib -0.057 | [8] 0.071 | epoxomicin 0.038 | [9] 0.004 | [10] -0.013 | [11] 0.095 | rosiglitazone -0.112 | [12] -0.077 | [13] 0.137

GTF2F1 (UniProt P35269)
inactive: [1] -0.012 | [2] -0.017 | [3] 0.02 | [4] 0.077 | Nexturastat A -0.022 | vemurafenib -0.014 | [5] -0.013 | [6] -0.025 | givinostat -0.013 | barasertib -0.019 | [7] 0.021 | volasertib -0.009 | [8] -0.015 | epoxomicin 0.009 | [9] -0.006 | [10] -0.021 | [11] 0.014 | rosiglitazone 0.009 | [12] -0.038 | [13] -0.051

GSTZ1 (UniProt G3V4T6)
inactive: [1] -0.014 | [2] 0 | [3] -0.001 | [4] 0.025 | Nexturastat A -0.057 | vemurafenib -0.049 | [5] -0.02 | [6] -0.045 | givinostat -0.016 | barasertib 0.029 | [7] 0.038 | volasertib 0.078 | [8] 0.042 | epoxomicin -0.09 | [9] 0.006 | [10] -0.022 | [11] 0.011 | rosiglitazone 0.025 | [12] -0.076 | [13] -0.03

HERC1 (UniProt Q15751)
inactive: [1] -0.019 | [2] -0.011 | [3] -0.023 | [4] 0 | Nexturastat A -0.026 | vemurafenib -0.02 | [5] 0.022 | [6] 0.024 | givinostat -0.011 | barasertib 0.008 | [7] -0.005 | volasertib -0.185 | [8] 0.024 | epoxomicin -0.08 | [9] 0.013 | [10] -0.01 | [11] -0.024 | rosiglitazone 0.025 | [12] 0.008 | [13] 0

HDGF (UniProt P51858)
inactive: [1] -0.081 | [2] 0.005 | [3] 0.011 | [4] 0.066 | Nexturastat A 0.013 | vemurafenib -0.012 | [5] 0.017 | [6] -0.019 | givinostat 0.013 | barasertib 0.043 | [7] -0.027 | volasertib -0.042 | [8] 0.016 | epoxomicin 0.009 | [9] 0.002 | [10] -0.02 | [11] -0.01 | rosiglitazone 0.009 | [12] -0.056 | [13] -0.125

Random excerpt: two entries already listed
HDAC3 isoform 2 (UniProt O15379)
inactive: [1] -0.074 | [2] 0.066 | [3] -0.106 | [4] 0.025 | Nexturastat A -0.104 | vemurafenib 0.028 | [5] -0.01 | [6] -0.038 | givinostat 0.128 | barasertib -0.052 | [7] -0.019 | volasertib -0.057 | [8] 0.071 | epoxomicin 0.038 | [9] 0.004 | [10] -0.013 | [11] 0.095 | rosiglitazone -0.112 | [12] -0.077 | [13] 0.137

GSTZ1 (UniProt G3V4T6)
inactive: [1] -0.014 | [2] 0 | [3] -0.001 | [4] 0.025 | Nexturastat A -0.057 | vemurafenib -0.049 | [5] -0.02 | [6] -0.045 | givinostat -0.016 | barasertib 0.029 | [7] 0.038 | volasertib 0.078 | [8] 0.042 | epoxomicin -0.09 | [9] 0.006 | [10] -0.022 | [11] 0.011 | rosiglitazone 0.025 | [12] -0.076 | [13] -0.03

More results

HAGH (UniProt Q16775)
inactive: [1] -0.047 | [2] -0.015 | [3] 0.008 | [4] -0.049 | Nexturastat A -0.019 | vemurafenib -0.049 | [5] 0.013 | [6] -0.056 | givinostat -0.129 | barasertib 0.028 | [7] 0.058 | volasertib 0.08 | [8] -0.019 | epoxomicin -0.019 | [9] -0.031 | [10] -0.008 | [11] -0.071 | rosiglitazone 0.059 | [12] -0.063 | [13] -0.095

GTF3C1 (UniProt Q12789)
inactive: [1] 0.175 | [2] 0.134 | [3] -0.119 | [4] -0.061 | Nexturastat A -0.074 | vemurafenib -0.226 | [5] -0.305 | [6] -0.064 | givinostat 0.063 | barasertib 0.086 | [7] 0.273 | volasertib -0.179 | [8] -0.14 | epoxomicin -0.144 | [9] -0.149 | [10] 0.035 | [11] -0.209 | rosiglitazone 0.23 | [12] 0.126 | [13] -0.264

HEPH isoform 3 (UniProt Q9BQS7)
inactive: [1] -0.012 | [2] 0.011 | [3] -0.018 | [4] -0.042 | Nexturastat A 0.11 | vemurafenib -0.048 | [5] -0.047 | [6] 0.008 | givinostat 0.013 | barasertib 0.018 | [7] -0.08 | volasertib -0.176 | [8] -0.009 | epoxomicin 0.021 | [9] 0.012 | [10] -0.023 | [11] -0.035 | rosiglitazone 0.001 | [12] 0.056 | [13] 0.024

HDLBP (UniProt Q00341)
inactive: [1] 0.027 | [2] 0.048 | [3] -0.082 | [4] -0.048 | Nexturastat A 0.383 | vemurafenib -0.062 | [5] 0.102 | [6] 0.17 | givinostat 0.133 | barasertib -0.024 | [7] 0.157 | volasertib 0.076 | [8] 0.033 | epoxomicin -0.21 | [9] 0.004 | [10] 0.206 | [11] 0.009 | rosiglitazone -0.061 | [12] 0.243 | [13] 0.023

H1-5 (UniProt P16401)
inactive: [1] 0.019 | [2] -0.002 | [3] -0.1 | [4] -0.151 | Nexturastat A 0.45 | vemurafenib -0.178 | [5] -0.128 | [6] 0.204 | givinostat 0.182 | barasertib -0.117 | [7] 0.156 | volasertib 0.396 | [8] -0.002 | epoxomicin -0.334 | [9] -0.076 | [10] 0.203 | [11] -0.114 | rosiglitazone -0.163 | [12] 0.321 | [13] 0.305

HAUS1 (UniProt Q96CS2)
inactive: [1] -0.135 | [2] -0.07 | [3] 0.049 | [4] -0.142 | Nexturastat A 0.19 | vemurafenib -0.093 | [5] 0.114 | [6] 0.102 | givinostat 0.112 | barasertib 0.033 | [7] 0.002 | volasertib -0.102 | [8] -0.036 | epoxomicin -0.039 | [9] -0.016 | [10] 0.019 | [11] 0.005 | rosiglitazone 0.089 | [12] 0.183 | [13] 0.048

GSPT2 (UniProt Q8IYD1)
inactive: [1] 0.004 | [2] -0.052 | [3] 0.013 | [4] 0.004 | Nexturastat A -0.016 | vemurafenib -0.012 | [5] 0 | [6] -0.087 | givinostat -0.02 | barasertib -0.038 | [7] 0.019 | volasertib -0.007 | [8] -0.033 | epoxomicin 0.091 | [9] -0.03 | [10] 0.04 | [11] -0.039 | rosiglitazone -0.032 | [12] -0.058 | [13] 0.038
